# This is one part of the list.
# Chains of the proteins cited; added tags and fusions are not shown.
# UniProt Q0JBA9, entry or part of it: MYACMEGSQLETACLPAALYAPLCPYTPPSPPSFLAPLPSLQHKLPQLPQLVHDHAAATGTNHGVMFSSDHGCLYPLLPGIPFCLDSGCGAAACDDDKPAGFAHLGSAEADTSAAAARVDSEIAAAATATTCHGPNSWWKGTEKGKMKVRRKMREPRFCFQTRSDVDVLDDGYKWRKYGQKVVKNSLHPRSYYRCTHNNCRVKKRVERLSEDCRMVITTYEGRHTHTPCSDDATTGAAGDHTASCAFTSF
# Target: OsWRKY34 (Oryza sativa, UniProt Q0JBA9 1-250)
# Experiment: protein-binding microarray (RPBM); PBS, 2% BSA, 51.3 ng/ul salmon testes DNA, 50 uM zinc acetate, 200 nM TF, 25 C, 1 h; high values mean tight binding
# Settings: protein: recombinant; tags: N-terminal polyhistidine and DsRed monomer fusion (pET32a); label: CyDye5-dUTP incorporated in the synthesized complementary strand; 3' TTTTT single-stranded linker to array surface; dsDNA, one strand shown
# Outline: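 The binding signal is fluorescence intensity per feature, in arbitrary units, read on an Axon 4000B scanner. Polyhistidine- and DsRed-tagged transcription factors (N-terminal fusions) from E. coli BL21-CodonPlus were purified on Ni–NTA and applied at 200 nM for 1 h at 25 °C to a double-stranded, BSA-blocked custom Agilent array in buffer with 50 µM zinc acetate.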
row,Sequence,binding signal
1,CTCCCGTTGCAAGTTGTCCCCATCCCTGGTGCTCTTGGTCCGGAGTCACCTAGTGCAG,8890 fluorescence intensity (a.u.)
2,ACGCTTTTTATTCTTTTTCAGATGTAGCCTTGCAGTGTAACGGAGTCACCTAGTGCAG,8890 fluorescence intensity (a.u.)
3,GCACTGATATATTTATTCTCTTCTTTAGTAGACCTACTGACGGAGTCACCTAGTGCAG,8250 fluorescence intensity (a.u.)
4,CCATGGATGCCGACGTCGTAATGGCTTCTCTCTCTGCTGTCGGAGTCACCTAGTGCAG,8750 fluorescence intensity (a.u.)
5,TACATGTGGGTCCCATGGGTTTTATTATCTTTTTCGGATCCGGAGTCACCTAGTGCAG,9360 fluorescence intensity (a.u.)
6,CCCTATACCATTTTCTTTTTCATATTTTTTTCTCGAAAACCGGAGTCACCTAGTGCAG,8840 fluorescence intensity (a.u.)
7,CCATTCACAAATCATGTTGAGTCGAACCATCAAATTTTGCCGGAGTCACCTAGTGCAG,8060 fluorescence intensity (a.u.)
8,TCTCACTGTTACCGTACGCGACCACACTTTATATCGGACCCGGAGTCACCTAGTGCAG,9420 fluorescence intensity (a.u.)
9,AATCTGTAATTTGTTTTGTTATTAGTCTACAGGCCTGTTCCGGAGTCACCTAGTGCAG,10400 fluorescence intensity (a.u.)
10,GCCCGTCCCCGTCTCGTGTCGTCTCGCGTCCTAACCTAAACGGAGTCACCTAGTGCAG,8390 fluorescence intensity (a.u.)
11,GGTCGCCTCTGCTCTGGTAGCACAATGTGCAATTTACTTACGGAGTCACCTAGTGCAG,9430 fluorescence intensity (a.u.)
12,TGTAATGTTTTTCTGTATGCAGCACCACCGCTTTCAACTCCGGAGTCACCTAGTGCAG,8710 fluorescence intensity (a.u.)
13,AGATTAGTTTTCCCATATATTTCTTGTCAGTCGTCGTCATCGGAGTCACCTAGTGCAG,8970 fluorescence intensity (a.u.)
14,CCGTCCACGCGCGATTCCTCCCCTCCACCCGCGCCATCTCCGGAGTCACCTAGTGCAG,8110 fluorescence intensity (a.u.)
15,CTATACTCACCCACTTGCCAATTTGCCATTGCCAACACCTCGGAGTCACCTAGTGCAG,9100 fluorescence intensity (a.u.)
16,TAATCCGCACGCCGCCGCCTCCCTCTCTGCTTCGCACTCCCGGAGTCACCTAGTGCAG,9270 fluorescence intensity (a.u.)
17,GCAGATTCGCCGCTGCCACCGCATCCCGCCCACCCACCGCCGGAGTCACCTAGTGCAG,11700 fluorescence intensity (a.u.)
18,ACCACCAACACCACAATATATGGTCCTCTACTATCTTAATCGGAGTCACCTAGTGCAG,9720 fluorescence intensity (a.u.)
19,ATCTTGTGACAACTTTTTTCTCTTTACCTTTCTCTATATTCGGAGTCACCTAGTGCAG,9930 fluorescence intensity (a.u.)
20,AGCTGCAAACCTCTTACTGTTTCTGATAATCTTCCTATGACGGAGTCACCTAGTGCAG,8200 fluorescence intensity (a.u.)
21,CTCCACACAGACACACATCCCACCCCACCCACATACACACCGGAGTCACCTAGTGCAG,13200 fluorescence intensity (a.u.)
22,ACTTGCACGTACGCTTTCCCATTCTCTTTTGCTTAAACCGCGGAGTCACCTAGTGCAG,13300 fluorescence intensity (a.u.)
23,TTCTATAGCTTTCCATGAACCAGATGCCCTTTGATCTATACGGAGTCACCTAGTGCAG,9000 fluorescence intensity (a.u.)
24,GGACAATGACAGCACATTACGCGCACCTTTTCTTCTACCACGGAGTCACCTAGTGCAG,13300 fluorescence intensity (a.u.)
25,CTATCATCTTTCTTCCCACATCGTCTATTCCCTAAAGAATCGGAGTCACCTAGTGCAG,11800 fluorescence intensity (a.u.)
26,TCGCCTCCTCCGGCTTATAAATGGCGGCCACCACCTTCACCGGAGTCACCTAGTGCAG,8440 fluorescence intensity (a.u.)
27,ACCTGCCTCGATCTCGCTCTCGCTCTCGCTCTCTACCCGACGGAGTCACCTAGTGCAG,9500 fluorescence intensity (a.u.)

# Quoted at random: 2 entries already listed
row,Sequence,binding signal
25,CTATCATCTTTCTTCCCACATCGTCTATTCCCTAAAGAATCGGAGTCACCTAGTGCAG,11800 fluorescence intensity (a.u.)
22,ACTTGCACGTACGCTTTCCCATTCTCTTTTGCTTAAACCGCGGAGTCACCTAGTGCAG,13300 fluorescence intensity (a.u.)

# (cont.)

row,Sequence,binding signal
1,GCACCCGTTTTTCTACTGGATTTTTCTCTGCGTCCTCTGCCGGAGTCACCTAGTGCAG,9340 fluorescence intensity (a.u.)
2,AAATTCCCACACACACACACACACACACACACACACACACCGGAGTCACCTAGTGCAG,8560 fluorescence intensity (a.u.)
3,TTGATTTCCTGCTGCTCCATTGGTTCTTGCTCTTGTTCTTCGGAGTCACCTAGTGCAG,12900 fluorescence intensity (a.u.)
4,TTTTTTCCTAGTCAACCCGATCGAGATCCCATCCCGTTTACGGAGTCACCTAGTGCAG,8110 fluorescence intensity (a.u.)
5,GGTAGAGGAGGGAGGGGAGGCGCAGGGGCAGTGGCCCGACCGGAGTCACCTAGTGCAG,10100 fluorescence intensity (a.u.)
6,TCTTCATCTTTGCTTCGGAGCAGACATTCTACTTCAACAACGGAGTCACCTAGTGCAG,8790 fluorescence intensity (a.u.)
7,ATATGCTGTTCATTGTTGAATTCTGTTTGTGTCACCTTCTCGGAGTCACCTAGTGCAG,9180 fluorescence intensity (a.u.)
8,CTACTCCTACTTCGTTTTACCACTAAGCGGTCTGGACGATCGGAGTCACCTAGTGCAG,10000 fluorescence intensity (a.u.)
9,GCCGCACTGGACTGTGCTGTACATGTTGTTCACATATCTTCGGAGTCACCTAGTGCAG,8270 fluorescence intensity (a.u.)
10,GATTGTTTTCTCTCTCACTCACTCCGCTGTATATATATCTCGGAGTCACCTAGTGCAG,8230 fluorescence intensity (a.u.)
11,GTTCACGGCCACCACTATCGTGTTGTCTTTGTGTCGTTGTCGGAGTCACCTAGTGCAG,10000 fluorescence intensity (a.u.)
12,CTAGATTCATATGTACATCATCGTATTCGTATTCTTTCCACGGAGTCACCTAGTGCAG,8110 fluorescence intensity (a.u.)
13,GGTCTTGTATTTATACCTATAGGTGTTCCCTTGTCCAAGTCGGAGTCACCTAGTGCAG,9690 fluorescence intensity (a.u.)
14,GAGTAAGACGAATAGTCAAACATGTGAGAAAAGTCAACGGCGGAGTCACCTAGTGCAG,11600 fluorescence intensity (a.u.)
15,ATCTCCAAACTCTCTCTGTTGTTCCCATCTGCCGGAGGCCCGGAGTCACCTAGTGCAG,9550 fluorescence intensity (a.u.)
16,AGCCCAATATTTCGATCAAACGCTGACTCCATATCGCCTTCGGAGTCACCTAGTGCAG,8260 fluorescence intensity (a.u.)
17,ATGGTCACCCTGATGTTTTCGATAGAATCTTTCACCTCACCGGAGTCACCTAGTGCAG,8070 fluorescence intensity (a.u.)
18,GCGTCAGTCGTCAGACCCGACGAGTGGTGGGGTGGGGAGTCGGAGTCACCTAGTGCAG,11800 fluorescence intensity (a.u.)
19,CGTCTCATCTCATCTCGTCTCGCCCCGCTGTAATCTCGTACGGAGTCACCTAGTGCAG,12200 fluorescence intensity (a.u.)
20,AACTTGGTCAAACTTAAAGCAGTTTGACTTCTTATAACTTCGGAGTCACCTAGTGCAG,15900 fluorescence intensity (a.u.)
21,CCTCCGCCTCCGCGCGCGCCAGCGGCCGCCGCCGCCTCCTCGGAGTCACCTAGTGCAG,8220 fluorescence intensity (a.u.)
22,AATTTTGGTTATTTGCTGGTGGACATTTATCCCATTAAAACGGAGTCACCTAGTGCAG,9370 fluorescence intensity (a.u.)
23,CATGAGCTAATAGCTCACCTCGTTTTGCGTATCTTCCCAACGGAGTCACCTAGTGCAG,8730 fluorescence intensity (a.u.)
24,GTGCAGTATGCATTAGCTCGTTTTTCTCGTCACACCTTTGCGGAGTCACCTAGTGCAG,10300 fluorescence intensity (a.u.)
25,AAGCTTTGACTTTTTTTTGTCAAATTTTTTAAGTTTGATTCGGAGTCACCTAGTGCAG,20400 fluorescence intensity (a.u.)
26,TGGTCTTGGTTTGGCTTTTTTGTTTTTTCTAGATGAACTTCGGAGTCACCTAGTGCAG,12600 fluorescence intensity (a.u.)
27,TGTACCATATATTTTTTAACTTTTTTCTTTTGTTTTTTATCGGAGTCACCTAGTGCAG,9640 fluorescence intensity (a.u.)

# From paper PMC7819943, “Rice protein-binding microarrays: a tool to detect cis-acting elements near promoter regions in rice”
